Laboratory results: publication doi:10.1101/2024.02.15.580497
No constants are given. Whether binding was seen depends on the method and setting. In cells and extracts the contact can be indirect. Some binding calls cover weakened binding; strength is not graded here.

Sequences of proteins named here, by UniProt entry; tags and fusion partners are left off. Residues count along the entry.
UniProt Q14191, residues 910-1250: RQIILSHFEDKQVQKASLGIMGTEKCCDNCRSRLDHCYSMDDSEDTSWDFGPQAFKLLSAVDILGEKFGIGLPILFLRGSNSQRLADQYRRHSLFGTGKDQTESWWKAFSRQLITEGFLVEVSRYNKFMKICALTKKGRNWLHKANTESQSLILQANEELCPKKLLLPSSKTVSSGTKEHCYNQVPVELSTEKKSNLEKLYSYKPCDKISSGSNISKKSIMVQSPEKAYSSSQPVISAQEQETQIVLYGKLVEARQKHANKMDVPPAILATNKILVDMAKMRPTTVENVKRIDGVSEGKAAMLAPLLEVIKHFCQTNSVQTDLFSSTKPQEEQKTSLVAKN
UniProt Q9Y3Z3: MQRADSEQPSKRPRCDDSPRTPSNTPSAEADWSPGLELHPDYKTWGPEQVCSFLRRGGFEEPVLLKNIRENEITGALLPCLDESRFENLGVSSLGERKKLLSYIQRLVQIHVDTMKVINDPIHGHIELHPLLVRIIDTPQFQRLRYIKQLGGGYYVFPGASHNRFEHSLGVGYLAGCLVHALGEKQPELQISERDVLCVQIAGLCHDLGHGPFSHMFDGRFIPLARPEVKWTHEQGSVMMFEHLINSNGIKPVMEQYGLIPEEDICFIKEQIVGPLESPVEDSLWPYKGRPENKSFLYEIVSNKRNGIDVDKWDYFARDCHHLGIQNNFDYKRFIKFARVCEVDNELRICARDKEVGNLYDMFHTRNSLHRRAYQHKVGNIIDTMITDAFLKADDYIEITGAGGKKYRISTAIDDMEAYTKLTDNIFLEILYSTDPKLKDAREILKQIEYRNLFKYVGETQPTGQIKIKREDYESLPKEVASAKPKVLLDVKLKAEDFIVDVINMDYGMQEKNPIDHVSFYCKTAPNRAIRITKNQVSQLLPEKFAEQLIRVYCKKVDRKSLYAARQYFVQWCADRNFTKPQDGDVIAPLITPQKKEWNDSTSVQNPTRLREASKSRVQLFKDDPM

Molecular target: GST-C-terminal WRN fragment (amino acids 910 to 1250) (human) (UniProt Q14191)
Assay: pull-down

binding: binds
Substance: SAMHD1 (from UniProt Q9Y3Z3 1-626)
